Consider 6 substances from patent publication US20190351015A1.

Amino acid sequences for entries named in this document (tags omitted). A change or cut given only in a name is not applied to a line headed by its entry.
UniProt P25963: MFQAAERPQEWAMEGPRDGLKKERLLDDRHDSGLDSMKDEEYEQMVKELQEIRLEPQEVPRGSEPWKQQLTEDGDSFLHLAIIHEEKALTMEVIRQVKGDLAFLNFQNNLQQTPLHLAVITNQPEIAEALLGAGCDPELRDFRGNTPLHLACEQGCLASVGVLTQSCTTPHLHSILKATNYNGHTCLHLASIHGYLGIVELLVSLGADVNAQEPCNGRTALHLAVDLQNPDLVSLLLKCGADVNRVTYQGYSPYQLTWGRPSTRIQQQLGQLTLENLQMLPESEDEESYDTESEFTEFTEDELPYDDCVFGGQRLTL
UniProt P78367: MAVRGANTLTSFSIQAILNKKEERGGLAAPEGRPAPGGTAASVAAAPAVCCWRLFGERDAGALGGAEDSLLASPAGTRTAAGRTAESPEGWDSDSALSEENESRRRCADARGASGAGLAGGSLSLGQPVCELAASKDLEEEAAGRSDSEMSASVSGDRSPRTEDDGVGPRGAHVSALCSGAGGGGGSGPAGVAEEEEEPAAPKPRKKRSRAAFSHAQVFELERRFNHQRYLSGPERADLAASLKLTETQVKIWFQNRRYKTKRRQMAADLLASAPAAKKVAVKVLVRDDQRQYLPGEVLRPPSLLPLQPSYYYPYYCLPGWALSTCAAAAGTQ

These are yes or no findings as the source states them, for the method shown. In cells and extracts the contact can be indirect. Some binding calls cover weakened binding; strength is not graded here.

The target of the test is IκBα (Homo sapiens (Human)) (UniProt P25963). Description: co-immunoprecipitation with anti-Myc antibody (Myc-tagged IκBα) from transfected 293T cells with MG132, western blot. For orientation: Immunoblotting shows a protein as a band on a membrane.
Take “Nkx3.2 (1-333) (from UniProt P78367 1-333)”: the binding result is listed as “binds”. On to “Nkx3.2 (112-320) (from UniProt P78367 112-320)”, for which the binding result is “binds”. With “Nkx3.2 (123-320) (from UniProt P78367 123-320)”, the binding result was “binds”. As for “Nkx3.2 (130-320) (from UniProt P78367 130-320)”, the entry is “binds”; as for “Nkx3.2 (150-320) (from UniProt P78367 150-320)”, “binds”. Then “Nkx3.2 (153-318) (from UniProt P78367 153-318)”, with “binds”.
